One substance from paper PMC8266859 can be followed below.

Protein sequences, listed by entry. Tags and fused reporters are not part of them. Lines headed by an entry give the natural chain unless they say otherwise; changes in a name come on top.
UniProt P02525: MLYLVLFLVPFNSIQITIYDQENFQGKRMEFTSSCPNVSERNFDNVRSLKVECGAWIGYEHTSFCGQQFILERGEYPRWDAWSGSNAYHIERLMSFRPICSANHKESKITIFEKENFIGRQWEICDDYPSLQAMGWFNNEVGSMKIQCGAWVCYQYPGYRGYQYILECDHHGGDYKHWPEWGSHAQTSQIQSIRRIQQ

The experiment concerns the target T1, phosphatidylinositol transfer protein beta isoform (PITPβ), mCherry fusion from Ad-CMV-mCherry-Pitpnb (UniProt P53811).
T1 sequence: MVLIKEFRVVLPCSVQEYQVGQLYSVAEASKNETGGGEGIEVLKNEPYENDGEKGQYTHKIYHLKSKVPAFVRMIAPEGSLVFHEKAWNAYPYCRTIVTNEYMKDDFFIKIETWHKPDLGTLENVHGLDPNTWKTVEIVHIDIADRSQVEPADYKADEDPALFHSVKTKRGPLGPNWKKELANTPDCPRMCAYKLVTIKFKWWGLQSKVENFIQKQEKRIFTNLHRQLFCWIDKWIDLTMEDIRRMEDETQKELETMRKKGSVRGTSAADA
Kind of experiment: co-IP; lysates of wildtype mouse RPE flatmounts infected with Ad-CMV-mCherry-Pitpnb (or mCherry control) and Ad-CMV-A3 or Ad-CMV-A1 for 16 h; starved 2 h, with or without 50 ng/mL EGF for 30 min; RFP magnetic beads (Chromotek) 2 h at 4 °C; wash 10 mM Tris/Cl pH 7.5, 150 mM NaCl, 0.5 mM EDTA; western blot. On the technique in general: In western blotting, separated proteins are transferred to a membrane and probed.

No constants are given. Whether binding was seen depends on the method and setting. In cells and extracts the contact can be indirect. Binding can be weak; no strength is given. Where a sequence is shown, tags or fusion partners need not be part of it.

Regarding “βA1-crystallin (shorter isoform of βA3/A1-crystallin), from Ad-CMV-A1 (from UniProt P02525)”, the binding result is “binds”.
